Measurements from patent US20250154171A1, “RAS INHIBITORS” (Revolution Medicines, Inc., priority 2023, published 2025).
Some entries share one result that the patent states for a list of compounds. For part of these data: At least one structure is not confirmed: it was looked up by name or label, or the drawing left a doubt.

Chains of the proteins cited; added tags and fusions are not shown. Lines headed by an entry give the natural chain unless they say otherwise; changes in a name come on top. Residues count along the entry.
UniProt P01116, 1-188 isoform P01116-2 G12V: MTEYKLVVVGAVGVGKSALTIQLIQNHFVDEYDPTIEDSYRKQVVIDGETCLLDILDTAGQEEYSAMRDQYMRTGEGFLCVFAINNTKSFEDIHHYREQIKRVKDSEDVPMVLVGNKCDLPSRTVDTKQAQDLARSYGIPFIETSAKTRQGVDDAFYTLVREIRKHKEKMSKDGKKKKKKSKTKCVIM
UniProt P62937, whole entry: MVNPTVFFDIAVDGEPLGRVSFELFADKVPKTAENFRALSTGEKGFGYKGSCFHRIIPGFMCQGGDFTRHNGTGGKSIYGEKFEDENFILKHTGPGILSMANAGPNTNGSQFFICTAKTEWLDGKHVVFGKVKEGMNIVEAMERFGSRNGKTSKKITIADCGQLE

Tests used:
K-RasG12V = K-RasG12V (Homo sapiens, UniProt P01116+P62937, G12V); test: Disruption of BRAF RBD interaction with K-Ras (TR-FRET / MOA assay), K-RasG12V; format: biochemical; conditions: TR-FRET with cyclophilin A and GST-BRAF RBD, read-out: IC50 with respect to K-RasG12V (disruption of BRAF RBD interaction)
Capan-1 (K-Ras G12V) = test: CellTiter-Glo cell viability assay, Capan-1; format: cell-based, human; conditions: 5-day treatment, Capan-1 versus A375

Row | SMILES | IC50 (K-RasG12V) | decrease in cell viability with respect to KRAS G12V (Capan-1) versus wild-type KRAS (A375) (Capan-1 (K-Ras G12V))
1 | CO[C@@H](C)c1ncc(N2CCN(C3CC3)CC2)cc1-c1c2c3cc(ccc3n1CCOC1CCOCC1)-c1csc(n1)[C@@H](N1CCOCC1)[C@H](NC(=O)C13CC(C1)C(C)O3)C(=O)N1CCC[C@H](N1)C(=O)OCC(C)(C)C2 (stereo partly drawn) [Example A591] | < 1 µM | greater decrease in cell viability
2 | COC(C)c1ncc(N2CCN(C3CC3)CC2)cc1-c1c2c3cc(ccc3n1CCOC1CCOCC1)-c1csc(n1)C(N1CCOCC1)C(NC(=O)C1C(C)C1c1ccncn1)C(=O)N1NC(C(=O)OCC(C)(C)C2)C2CC1C2 (stereo not drawn) [Example A592] | < 1 µM | greater decrease in cell viability
3 | CO[C@@H](C)c1ncc(N2CCN(C3CC3)CC2)cc1-c1c2c3cc(ccc3n1CCOC1CCOCC1)-c1csc(n1)[C@@H](N1CCCC1)[C@H](NC(=O)[C@H]1[C@H](C)[C@@H]1c1cn(C)cn1)C(=O)N1CCC[C@H](N1)C(=O)OCC(C)(C)C2 [Example A593] | < 1 µM | greater decrease in cell viability
4 | CO[C@@H](C)c1ncc(N2CCN(C3CC3)CC2)cc1-c1c2c3cc(ccc3n1CCOC1CCOCC1)-c1csc(n1)[C@@H](N1CCOCC1)[C@H](NC(=O)[C@@H]1[C@@H](C)[C@H]1c1cocn1)C(=O)N1CCC[C@H](N1)C(=O)OCC(C)(C)C2 [Example A596] | < 1 µM | greater decrease in cell viability
5 | CO[C@@H](C)c1ncc(N2CCN(C3CC3)CC2)cc1-c1c2c3cc(ccc3n1CCOC1CCOCC1)-c1csc(n1)[C@@H](N1CC3(COC3)C1)[C@H](NC(=O)[C@H]1[C@H](C)[C@@H]1C)C(=O)N1CCC[C@H](N1)C(=O)OCC(C)(C)C2 [Example A598] | < 1 µM | greater decrease in cell viability
6 | CO[C@@H](C)c1ncc(N2CCN(C3CC3)CC2)cc1-c1c2c3cc(ccc3n1CCOC1CCOCC1)-c1csc(n1)[C@@H](N1CCOCC1C#N)[C@H](NC(=O)C13CC(C1)C(C)O3)C(=O)N1CCC[C@H](N1)C(=O)OCC(C)(C)C2 (stereo partly drawn) [Example A606] | < 1 µM | greater decrease in cell viability
7 | CO[C@@H](C)c1ncc(N2CCN(C3CC3)CC2)cc1-c1c2c3cc(ccc3n1CCOC1CC3(COC3)C1)-c1csc(n1)[C@@H](N1CCOCC1)[C@H](NC(=O)[C@@H]1[C@@H](C)[C@H]1c1ccccn1)C(=O)N1CCC[C@H](N1)C(=O)OCC(C)(C)C2 [Example A607] | < 1 µM | greater decrease in cell viability
8 | COC(C)c1ncc(N2CCN(C3CC3)CC2)cc1-c1c2c3cc(ccc3n1CCOC1CCOCC1)-c1csc(n1)C(OCC(F)F)C(NC(=O)C1(C#N)CCCO1)C(=O)N1CCCC(N1)C(=O)OCC(C)(C)C2 (stereo not drawn) [Example A609] | < 1 µM | greater decrease in cell viability
9 | COC(C)c1ncc(N2CCN(C3CC3)CC2)cc1-c1c2c3cc(ccc3n1CCOC1CCOCC1)-c1csc(n1)C(N1CCCC1)C(NC(=O)C1(C#N)CCCO1)C(=O)N1CCCC(N1)C(=O)OCC(C)(C)C2 (stereo not drawn) [Example A610] | < 1 µM | greater decrease in cell viability
10 | CO[C@@H](C)c1ncc(N2CCN(C3CC3)CC2)cc1-c1c2c3cc(ccc3n1CCOC1CCOCC1)-c1csc(n1)[C@@H](N1CCOCC1)[C@H](NC(=O)C13CCC(CC1)O3)C(=O)N1CCC[C@H](N1)C(=O)OCC(C)(C)C2 [Example A612] | < 1 µM | greater decrease in cell viability
11 | CO[C@@H](C)c1ncccc1-c1c2c3cc(ccc3n1CCOC1CCOCC1)-c1csc(n1)[C@@H](N1CCCC1)[C@H](NC(=O)C13CC(C1)[C@H](C)O3)C(=O)N1CCC[C@H](N1)C(=O)OCC(C)(C)C2 [Example A613] | < 1 µM | greater decrease in cell viability
12 | CO[C@@H](C)c1ncc(N2CCN(C3CC3)CC2)cc1-c1c2c3cc(ccc3n1CCOC1CCOCC1)-c1csc(n1)[C@@H](N1CCCC1)[C@H](NC(=O)C13CC(C1)C(C)O3)C(=O)N1CCC[C@H](N1)C(=O)OCC(C)(C)C2 (stereo partly drawn) [Example A614] | < 1 µM | greater decrease in cell viability
13 | CO[C@@H](C)c1ncccc1-c1c2c3cc(ccc3n1CCOC1CCOCC1)-c1csc(n1)[C@@H](N1CCCC1)[C@H](NC(=O)C13CC(C1)[C@@H](C)O3)C(=O)N1CCC[C@H](N1)C(=O)OCC(C)(C)C2 [Example A615] | < 1 µM | greater decrease in cell viability
14 | COC(C)c1ncc(N2CCN(C3CC3)CC2)cc1-c1c2c3cc(ccc3n1CCOC1CCOCC1)-c1csc(n1)C(N1CCC(F)(F)C1)C(NC(=O)C1C(C)C1C)C(=O)N1CCCC(N1)C(=O)OCC(C)(C)C2 (stereo not drawn) [Example A616] | < 1 µM | greater decrease in cell viability
15 | CO[C@@H](C)c1ncc(N2CCN(C3CC3)CC2)cc1-c1c2c3cc(ccc3n1CCOC1CC3(COC3)C1)-c1csc(n1)[C@@H](N1CCOCC1)[C@H](NC(=O)C13CC(CO1)C3)C(=O)N1CCC[C@H](N1)C(=O)OCC(C)(C)C2 [Example A617] | < 1 µM | greater decrease in cell viability
16 | CO[C@@H](C)c1ncc(N2CCN(C3CC3)CC2)cc1-c1c2c3cc(ccc3n1CCOC1CC3(COC3)C1)-c1csc(n1)[C@@H](N1CCOCC1)[C@H](NC(=O)[C@@H]1[C@@H](C)[C@H]1c1cocn1)C(=O)N1CCC[C@H](N1)C(=O)OCC(C)(C)C2 [Example A619] | < 1 µM | greater decrease in cell viability
17 | CO[C@@H](C)c1ncc(N2CCN(C3CC3)CC2)cc1-c1c2c3cc(ccc3n1CCOC1CC3(COC3)C1)-c1csc(n1)[C@@H](N1CCOCC1)[C@H](NC(=O)[C@@H]1[C@@H](C)[C@H]1c1ccncn1)C(=O)N1CCC[C@H](N1)C(=O)OCC(C)(C)C2 [Example A620] | < 1 µM | greater decrease in cell viability
18 | CO[C@@H](C)c1ncc(N2CCN(C3CC3)CC2)cc1-c1c2c3cc(ccc3n1CCOC1CCOCC1)-c1csc(n1)C(N1CCOCC1C#N)[C@H](NC(=O)[C@@H]1[C@@H](C)[C@H]1c1cocn1)C(=O)N1CCC[C@H](N1)C(=O)OCC(C)(C)C2 (stereo partly drawn) [Example A627] | < 1 µM | greater decrease in cell viability
19 | CO[C@@H](C)c1ncc(N2CCN(C3CC3)CC2)cc1-c1c2c3cc(ccc3n1CCOC1CCOCC1)-c1csc(n1)[C@@H](N1CCOCC1)[C@H](NC(=O)[C@@H]1[C@@H](C)[C@H]1c1cocn1)C(=O)N1CC3CC(C3)(N1)C(=O)OCC(C)(C)C2 [Example A628] | < 1 µM | greater decrease in cell viability
20 | CO[C@@H](C)c1ncccc1-c1c2c3cc(ccc3n1CCOC1CCOCC1)-c1csc(n1)C(N1CC[C@@H](F)C1)[C@H](NC(=O)[C@@H]1[C@@H](C)[C@H]1c1ccncn1)C(=O)N1CCC[C@H](N1)C(=O)OCC(C)(C)C2 (stereo partly drawn) [Example A629] | < 1 µM | greater decrease in cell viability
21 | CO[C@@H](C)c1ncc(N2CCN(C3CC3)CC2)cc1-c1c2c3cc(ccc3n1CCOC1CCOCC1)-c1csc(n1)[C@@H](N1CCOCC1)[C@H](NC(=O)[C@@H]1CCO1)C(=O)N1N[C@H](C(=O)OCC(C)(C)C2)C2CC1C2 [Example A630] | < 1 µM | greater decrease in cell viability
22 | CCO[C@@H]1c2nc(cs2)-c2ccc3c(c2)c(c(-c2cc(N4CCN(C)CC4)cnc2[C@H](C)OC)n3CCOC(C)C)CC(C)(C)COC(=O)[C@@H]2CCCN(N2)C(=O)[C@H]1NC(=O)C12CC(C1)C(C)(C)O2 [Example A648] | < 1 µM | greater decrease in cell viability
23 | COC(C)c1ncc(N2CCN(C3CC3)CC2)cc1-c1c2c3cc(ccc3n1CCOC1CCOCC1)-c1csc(n1)C(OCC(F)F)C(NC(=O)C1(C#N)CCC1)C(=O)N1NC(C(=O)OCC(C)(C)C2)C2CC1C2 (stereo not drawn) [Example A656] | < 1 µM | greater decrease in cell viability
24 | COC(C)c1ncc(N2CCN(C3CC3)CC2)cc1-c1c2c3cc(ccc3n1CCOC1CCOCC1)-c1csc(n1)C(N1CCOCC1)C(NC(=O)C1(C#N)CCC1)C(=O)N1CCCC(N1)C(=O)OCC(C)(C)C2 (stereo not drawn) [Example A767] | < 1 µM | greater decrease in cell viability
25 | COC(C)c1ncc(N2CCN(C3CC3)CC2)cc1-c1c2c3cc(ccc3n1CCOC1CCOCC1)-c1csc(n1)C(OCC(F)F)C(NC(=O)C1C(C)C1C(C)C)C(=O)N1CCCC(N1)C(=O)OCC(C)(C)C2 (stereo not drawn) [Example A789] | < 1 µM | greater decrease in cell viability
26 | CCO[C@@H]1c2nc(cs2)-c2ccc3c(c2)c(c(-c2cc(N4CCN(C5CC5)CC4)cnc2[C@H](C)OC)n3CCOC(C)C)CC(C)(C)COC(=O)[C@@H]2CCCN(N2)C(=O)[C@H]1NC(=O)[C@@H]1[C@@H](C)[C@H]1C(=O)N1CCN(CC#N)CC1 [Example A819] | < 1 µM | greater decrease in cell viability
27 | CCO[C@@H]1c2nc(cs2)-c2ccc3c(c2)c(c(-c2cc(N4CCN(C5CC5)CC4)cnc2[C@H](C)OC)n3CCOC(C)C)CC(C)(C)COC(=O)[C@@H]2CCCN(N2)C(=O)[C@H]1NC(=O)[C@@H]1[C@@H](C)[C@H]1C(=O)N1CCN(C)[C@H](C)C1 [Example A828] | < 1 µM | greater decrease in cell viability
